Experimental data taken from the supplement of paper PMC10849652.
The other results are listed elsewhere or left out. Residues, ends and D or L forms follow the SMILES beside them. *: point of attachment. Cbz = O=C(OCc1ccccc1)*

The chains behind the UniProt entries cited, without tags or fusion partners. Where a name states a change or a piece, a line headed by the entry shows the natural chain unless it says otherwise.
UniProt P35250, whole entry, looked up: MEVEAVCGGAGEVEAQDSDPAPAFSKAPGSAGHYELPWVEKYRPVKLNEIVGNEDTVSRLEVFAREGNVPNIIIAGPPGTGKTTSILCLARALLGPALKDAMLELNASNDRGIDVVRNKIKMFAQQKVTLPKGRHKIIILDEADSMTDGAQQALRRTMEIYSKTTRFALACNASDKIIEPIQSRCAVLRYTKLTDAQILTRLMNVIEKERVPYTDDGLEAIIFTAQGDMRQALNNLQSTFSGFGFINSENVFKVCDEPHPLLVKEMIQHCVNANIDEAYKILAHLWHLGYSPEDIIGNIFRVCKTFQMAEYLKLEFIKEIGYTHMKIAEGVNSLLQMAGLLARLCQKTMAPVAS
UniProt P35241, whole entry, looked up: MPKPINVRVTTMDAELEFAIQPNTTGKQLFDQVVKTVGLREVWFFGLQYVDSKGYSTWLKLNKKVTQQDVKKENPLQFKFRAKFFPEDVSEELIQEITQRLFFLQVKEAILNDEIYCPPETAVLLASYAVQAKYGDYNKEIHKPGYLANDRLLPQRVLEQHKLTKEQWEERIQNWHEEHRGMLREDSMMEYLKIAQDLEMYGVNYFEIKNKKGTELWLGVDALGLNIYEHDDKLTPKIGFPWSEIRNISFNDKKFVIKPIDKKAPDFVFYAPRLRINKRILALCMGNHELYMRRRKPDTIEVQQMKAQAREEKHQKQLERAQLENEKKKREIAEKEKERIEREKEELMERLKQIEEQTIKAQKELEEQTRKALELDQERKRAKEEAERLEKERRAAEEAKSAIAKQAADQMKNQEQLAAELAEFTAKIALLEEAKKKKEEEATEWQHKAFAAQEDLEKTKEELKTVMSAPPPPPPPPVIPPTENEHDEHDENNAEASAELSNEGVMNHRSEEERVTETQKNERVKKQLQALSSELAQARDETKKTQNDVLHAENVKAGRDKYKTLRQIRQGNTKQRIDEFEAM
UniProt O43665: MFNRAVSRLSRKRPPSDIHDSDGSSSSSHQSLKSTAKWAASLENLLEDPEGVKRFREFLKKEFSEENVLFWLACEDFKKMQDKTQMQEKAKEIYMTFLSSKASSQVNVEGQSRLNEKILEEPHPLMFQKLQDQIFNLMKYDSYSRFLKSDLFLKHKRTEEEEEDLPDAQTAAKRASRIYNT
UniProt Q8NC42: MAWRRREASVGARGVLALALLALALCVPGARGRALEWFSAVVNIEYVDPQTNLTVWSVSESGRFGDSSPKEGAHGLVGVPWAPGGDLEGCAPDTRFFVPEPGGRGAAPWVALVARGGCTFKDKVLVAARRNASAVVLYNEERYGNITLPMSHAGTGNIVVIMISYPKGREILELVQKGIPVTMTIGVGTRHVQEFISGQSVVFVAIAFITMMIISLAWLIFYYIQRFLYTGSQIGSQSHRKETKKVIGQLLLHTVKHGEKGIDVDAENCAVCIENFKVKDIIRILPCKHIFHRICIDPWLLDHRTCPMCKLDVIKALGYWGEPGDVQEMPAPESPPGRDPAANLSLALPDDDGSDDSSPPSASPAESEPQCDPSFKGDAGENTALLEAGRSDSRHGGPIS
UniProt Q8NBN7: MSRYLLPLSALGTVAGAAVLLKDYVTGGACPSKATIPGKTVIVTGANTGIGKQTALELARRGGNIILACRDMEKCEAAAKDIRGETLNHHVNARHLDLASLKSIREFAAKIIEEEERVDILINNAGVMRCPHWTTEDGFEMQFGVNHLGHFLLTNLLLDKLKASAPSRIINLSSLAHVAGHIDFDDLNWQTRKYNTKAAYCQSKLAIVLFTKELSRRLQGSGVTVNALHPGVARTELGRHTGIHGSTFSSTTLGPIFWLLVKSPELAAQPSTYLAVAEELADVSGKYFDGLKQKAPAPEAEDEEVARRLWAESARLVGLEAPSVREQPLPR
UniProt Q14257: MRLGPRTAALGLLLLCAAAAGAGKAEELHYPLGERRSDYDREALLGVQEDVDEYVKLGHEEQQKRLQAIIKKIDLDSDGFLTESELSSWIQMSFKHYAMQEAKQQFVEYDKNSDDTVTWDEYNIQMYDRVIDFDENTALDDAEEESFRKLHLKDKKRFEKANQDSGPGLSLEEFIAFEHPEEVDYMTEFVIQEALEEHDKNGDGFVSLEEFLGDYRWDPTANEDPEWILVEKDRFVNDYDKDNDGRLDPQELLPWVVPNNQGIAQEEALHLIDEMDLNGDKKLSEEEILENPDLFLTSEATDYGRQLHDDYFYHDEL
UniProt Q96DB5: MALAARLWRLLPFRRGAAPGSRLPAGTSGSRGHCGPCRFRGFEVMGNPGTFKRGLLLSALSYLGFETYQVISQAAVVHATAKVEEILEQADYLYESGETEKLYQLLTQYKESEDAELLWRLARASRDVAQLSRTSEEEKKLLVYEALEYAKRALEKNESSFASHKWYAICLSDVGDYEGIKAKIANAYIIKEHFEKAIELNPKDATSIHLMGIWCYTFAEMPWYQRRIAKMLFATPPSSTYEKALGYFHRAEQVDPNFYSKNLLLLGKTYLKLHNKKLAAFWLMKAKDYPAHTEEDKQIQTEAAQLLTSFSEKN
UniProt Q96DM3: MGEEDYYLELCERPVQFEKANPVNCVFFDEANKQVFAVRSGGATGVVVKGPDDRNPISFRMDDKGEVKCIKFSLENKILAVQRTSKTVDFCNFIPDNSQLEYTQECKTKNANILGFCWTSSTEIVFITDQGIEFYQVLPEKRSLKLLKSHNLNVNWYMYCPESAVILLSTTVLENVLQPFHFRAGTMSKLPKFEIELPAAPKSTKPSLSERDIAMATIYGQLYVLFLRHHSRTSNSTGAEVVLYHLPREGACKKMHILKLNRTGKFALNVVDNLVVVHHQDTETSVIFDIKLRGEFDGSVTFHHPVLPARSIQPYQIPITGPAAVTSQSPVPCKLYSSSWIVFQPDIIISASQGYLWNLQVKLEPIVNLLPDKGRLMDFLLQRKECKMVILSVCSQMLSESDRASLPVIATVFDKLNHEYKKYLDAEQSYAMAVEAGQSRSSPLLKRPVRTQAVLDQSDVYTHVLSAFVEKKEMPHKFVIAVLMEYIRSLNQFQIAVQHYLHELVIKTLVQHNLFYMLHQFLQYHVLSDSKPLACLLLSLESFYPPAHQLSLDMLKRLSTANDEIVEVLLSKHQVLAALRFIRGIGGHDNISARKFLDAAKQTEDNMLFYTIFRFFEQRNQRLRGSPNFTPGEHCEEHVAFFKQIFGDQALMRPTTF

Assays:
Test in all cases: log2 fold change, soluble protein after heating vs DMSO (PISA); higher = thermal stabilisation; K562 cells, 10 uM, 30 min; active = over 0.2 and 3.5 SD of the protein, either way, in both replicates (recomputed)
erlotinib = compound: C#Cc1cccc(Nc2ncnc3cc(OCCOC)c(OCCOC)cc23)c1 [erlotinib]
How it was run: (§1)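 Quantification of soluble protein used TMTpro 16plex LC-MS/MS, with channel sums equalised. Samples were the supernatant after 21,000xg for 90 min of pooled aliquots from K562 cells (2×10^6 cells/mL) treated with 10 μM compound for 30 min, heated for 3 min over 48°C-58°C, and extracted in PBS with 0.5% NP-40 at 4°C. Values, from duplicates, describe thermal stability against control samples on a log2 fold-change scale.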

[1] = compound: C/C(=N\NC(=O)C1=CC(=CC=C1)S(=O)(=O)N2CCOCC2)/C3=C(C=CC(=C3)Cl)O
How it was run: as §1

[2] = compound: C1=CC(=C(C=C1Cl)C2=NC3=NC=CN=C3C(=N2)NC4=CC=NC=C4)F
How it was run: as §1

[3] = compound: C1=CC(=CC=C1C2=NC3=C(N2)C=C(C=C3)C(=O)N)OC4=CC=C(C=C4)Cl
How it was run: as §1

[4] = compound: C1=CC2=C(C=CC(=C2)/C=C\3/C(=O)NC(=NCC4=CC=CS4)S3)N=C1
How it was run: as §1

[5] = compound: C1=CC2=NC=CN=C2C=C1/C=C/3\C(=O)NC(=O)S3
How it was run: as §1

[6] = compound: C1=CC=C(C=C1)C2=NC(=C(N2)C3=CC=NC=C3)C4=CC(=C(C=C4)Cl)O
How it was run: as §1

[7] = compound: C1=CC=C2C(=C1)C3=NNC4=CC=CC(=C43)C2=O
How it was run: as §1

[8] = compound: C1CCN(C1)C(=O)NC2=CC=CC(=C2)NC3=NC=C(C(=N3)NCCC4=CN=CN4)Br
How it was run: as §1

[9] = compound: C1CN(CCC1(CC2=CC=C(C=C2)Cl)N)C3=NC=NC4=C3C=CN4
How it was run: as §1

IRAK-1-4 Inhibitor I = compound: C1COCCN1CCN2C3=CC=CC=C3N=C2NC(=O)C4=CC(=CC=C4)[N+](=O)[O-] [IRAK-1-4 Inhibitor I]
How it was run: as §1

ibrutinib = compound: C=CC(=O)N1CCC[C@@H](n2nc(-c3ccc(Oc4ccccc4)cc3)c3c(N)ncnc32)C1 [ibrutinib]
How it was run: as §1

[10] = compound: CC(=O)c1cnc2ccc(-c3cc(Cl)c(O)c(Cl)c3)nc2c1N[C@H]1CC[C@H](CN(C)C)CC1
How it was run: as §1

ralimetinib = compound: CC(C)(C)Cn1c(N)nc2ccc(-c3[nH]c(C(C)(C)C)nc3-c3ccc(F)cc3)nc21 [ralimetinib]
How it was run: as §1

[11] = compound: CC(C)(O)CC(=O)NCCn1ccc2ncnc(Nc3ccc(Oc4cccc(C(F)(F)F)c4)c(Cl)c3)c21
How it was run: as §1

[12] = compound: CC(C)C1=C2N=C(C=C(N2N=C1)NCC3=CC=CC=C3)NCCCCCCN
How it was run: as §1

[13] = compound: CC(C)C[C@@H](C=O)NC(=O)[C@H](CC(C)C)NC(=O)[C@H](CC(C)C)NC(=O)OCc1ccccc1
How it was run: as §1

pinometostat = compound: CC(C)N(C[C@H]1O[C@@H](n2cnc3c(N)ncnc32)[C@H](O)[C@@H]1O)[C@H]1C[C@@H](CCc2nc3cc(C(C)(C)C)ccc3[nH]2)C1 [pinometostat]
How it was run: as §1

[14] = compound: CC1=C(C(CC(=O)N1)C2=CC=C(C=C2)C(F)(F)F)C(=O)NC3=C(C=C4C(=C3)C=NN4)F
How it was run: as §1

[15] = compound: CC1=C(C2=C(C=C1)C(=O)C3=CC=CC=C3N2CCCN)C
How it was run: as §1

Measured: log2 fold change

RFC2 (UniProt P35250)
inactive: erlotinib 0.023 | [1] -0.011 | [2] 0.058 | [3] 0 | [4] 0.011 | [5] 0.017 | [6] 0.032 | [7] 0.005 | [8] 0.028 | [9] 0.007 | IRAK-1-4 Inhibitor I 0.02 | ibrutinib 0.001 | [10] -0.018 | ralimetinib -0.026 | [11] -0.025 | [12] -0.022 | [13] 0 | pinometostat 0.002 | [14] 0.027 | [15] 0.003

RDX (UniProt P35241)
inactive: erlotinib -0.017 | [1] -0.019 | [2] 0.191 | [3] 0 | [4] -0.023 | [5] 0 | [6] 0.039 | [7] -0.021 | [8] -0.018 | [9] 0.023 | IRAK-1-4 Inhibitor I 0.001 | ibrutinib -0.018 | [10] 0.024 | ralimetinib 0.023 | [11] -0.076 | [12] 0.078 | [13] -0.035 | pinometostat -0.029 | [14] -0.008 | [15] 0.039

RGS10 (UniProt O43665)
inactive: erlotinib -0.044 | [1] 0.048 | [2] 0.076 | [3] 0.009 | [4] -0.03 | [5] 0.002 | [6] 0.073 | [7] -0.015 | [8] -0.069 | [9] 0.036 | IRAK-1-4 Inhibitor I 0.046 | ibrutinib 0.047 | [10] -0.024 | ralimetinib 0.026 | [11] -0.025 | [12] -0.057 | [13] -0.004 | pinometostat 0.087 | [15] 0.015

RNF149 (UniProt Q8NC42)
inactive: erlotinib -0.072 | [1] 0.022 | [2] -0.025 | [3] 0.066 | [4] 0.009 | [5] -0.043 | [6] 0.016 | [7] -0.069 | [8] -0.052 | [9] -0.041 | IRAK-1-4 Inhibitor I -0.04 | ibrutinib 0.088 | [10] -0.012 | ralimetinib 0.041 | [11] -0.043 | [12] 0.063 | [13] 0.041 | pinometostat 0 | [14] -0.007 | [15] 0.028

RDH13 (UniProt Q8NBN7)
inactive: erlotinib 0.019 | [1] -0.004 | [2] 0.082 | [3] 0.01 | [4] 0.127 | [5] -0.024 | [6] 0.005 | [7] 0.007 | [8] 0.05 | [9] 0.007 | IRAK-1-4 Inhibitor I 0.012 | ibrutinib 0.03 | [10] -0.054 | ralimetinib -0.031 | [11] -0.061 | [12] -0.184 | [13] -0.029 | pinometostat -0.057 | [15] 0.111

RCN2 isoform 2 (UniProt Q14257)
inactive: erlotinib 0.017 | [1] -0.037 | [2] 0.018 | [3] 0.009 | [4] 0.016 | [5] 0.013 | [6] 0 | [7] -0.048 | [8] 0.045 | [9] -0.011 | IRAK-1-4 Inhibitor I -0.008 | ibrutinib -0.065 | [10] -0.004 | ralimetinib -0.026 | [11] -0.014 | [12] 0.009 | [13] -0.002 | pinometostat 0 | [14] 0.028 | [15] -0.036

RMDN1 (UniProt Q96DB5)
inactive: erlotinib 0.208 | [1] 0.066 | [2] 0.032 | [3] 0.01 | [4] 0.149 | [5] 0.001 | [6] 0.106 | [7] 0.019 | [8] 0.005 | [9] 0.032 | IRAK-1-4 Inhibitor I 0.065 | ibrutinib 0.006 | [10] -0.068 | ralimetinib -0.032 | [11] -0.004 | [12] -0.031 | [13] -0.005 | pinometostat -0.017 | [14] 0.001 | [15] 0.025

RMC1 (UniProt Q96DM3)
inactive: erlotinib 0.028 | [1] 0.124 | [2] 0.048 | [3] 0.04 | [4] 0.027 | [5] -0.038 | [6] 0.011 | [7] -0.055 | [8] 0.048 | [9] -0.038 | IRAK-1-4 Inhibitor I 0.038 | ibrutinib 0.03 | [10] -0.026 | ralimetinib -0.025 | [11] -0.002 | [12] -0.209 | [13] 0.011 | pinometostat -0.015 | [15] 0.039
